Experimental data published in paper PMC4287573.
No constants are given. Whether binding was seen depends on the method and setting. Binding seen in cells or lysates may run through a third protein. Some results given as binding are weak or reduced against the parent protein; the word gives no strength.

Sequences of proteins named here, by UniProt entry; tags and fusion partners are left off. Residues count along the entry.
HCV non-structural protein NS3 (Q99IB8, residues 1031-1661): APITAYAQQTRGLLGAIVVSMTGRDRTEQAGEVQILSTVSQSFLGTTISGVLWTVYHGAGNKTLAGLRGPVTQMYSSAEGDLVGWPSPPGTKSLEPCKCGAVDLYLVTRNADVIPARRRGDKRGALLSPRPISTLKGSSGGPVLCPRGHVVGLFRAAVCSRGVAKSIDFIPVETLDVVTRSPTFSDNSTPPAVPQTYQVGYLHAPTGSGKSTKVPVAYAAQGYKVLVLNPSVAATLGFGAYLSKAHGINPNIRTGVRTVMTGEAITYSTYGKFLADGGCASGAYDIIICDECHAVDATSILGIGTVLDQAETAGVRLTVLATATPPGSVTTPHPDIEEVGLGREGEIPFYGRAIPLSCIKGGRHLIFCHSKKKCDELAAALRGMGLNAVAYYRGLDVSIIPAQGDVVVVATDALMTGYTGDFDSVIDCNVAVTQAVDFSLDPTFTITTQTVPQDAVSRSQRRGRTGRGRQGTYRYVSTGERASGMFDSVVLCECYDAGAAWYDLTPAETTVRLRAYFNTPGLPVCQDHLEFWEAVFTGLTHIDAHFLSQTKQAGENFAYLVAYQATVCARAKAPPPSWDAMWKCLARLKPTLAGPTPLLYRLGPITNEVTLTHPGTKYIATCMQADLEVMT
HCV non-structural protein NS5A (Q99IB8, residues 1977-2442): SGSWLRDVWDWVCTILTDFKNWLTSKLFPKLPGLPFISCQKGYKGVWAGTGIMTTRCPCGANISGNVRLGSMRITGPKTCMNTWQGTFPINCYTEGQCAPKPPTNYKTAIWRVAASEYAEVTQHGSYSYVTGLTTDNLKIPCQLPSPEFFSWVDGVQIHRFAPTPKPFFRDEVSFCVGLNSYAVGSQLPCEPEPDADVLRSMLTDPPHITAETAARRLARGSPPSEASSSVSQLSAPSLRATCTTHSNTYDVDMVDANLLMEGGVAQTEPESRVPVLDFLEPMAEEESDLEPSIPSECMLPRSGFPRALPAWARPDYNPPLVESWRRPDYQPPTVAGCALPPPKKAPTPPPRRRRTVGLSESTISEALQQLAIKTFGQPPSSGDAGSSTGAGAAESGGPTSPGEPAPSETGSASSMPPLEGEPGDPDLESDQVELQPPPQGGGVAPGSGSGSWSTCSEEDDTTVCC

Tests used:
[1] = molecular target: HA-tagged HNRNPK (heterogeneous nuclear ribonucleoprotein K), wild type (human) (UniProt P61978); assay: co-IP; anti-HA agarose beads on lysates of Huh7.5 cells stably expressing HA-tagged HNRNPK or its deletion mutants, 48 h after electroporation with a subgenomic JFH1 replicon or genomic HCV RNA; lysis buffer 20 mM Tris-HCl pH 7.5, 0.5% Nonidet P-40, 1 mM sodium deoxycholate, 100 mM NaCl; 3 h at 4°C; elution with HA peptide; immunoblot; cells with non-tagged HNRNPK as control
[2] = molecular target: HA-tagged HNRNPK deletion mutant ΔNLS (human) (UniProt P61978); assay: as above

With “HCV non-structural protein NS5A (from UniProt Q99IB8 1977-2442)” the binding [1] was “no binding”.
With “HCV non-structural protein NS3 (from UniProt Q99IB8 1031-1661)” the binding [2] was “binds”.
